Assay results taken from the supplement of paper PMC5355238.
Where a name gives a salt, the structure may show the parent alone. The list shows a part of the results. Most entries show no effect beyond the scatter of the controls.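 Reh, a human leukemia cell line, is read out by flow cytometry as the median γH2AX antibody signal in S-phase cells; the score counts standard deviations from the median difference of each paired plate set. Scores above 2.5 were candidate hits; scores below -2 mark compounds lowering MK1775-induced damage.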

What follows are molecules tested on Reh (assay: Z' of S-phase gammaH2AX difference (drug + MK1775 minus drug alone) (Z-score); higher = stronger synergistic S-phase DNA damage with MK1775). Conditions: MK1775 concentration 400 nM; first compound 10 µM; 4 h.

Structure (SMILES) | Z' of S-phase gammaH2AX difference (Z-score)
Nc1cccc2c1C(=O)N(C1CCC(=O)NC1=O)C2=O (centres undefined) [Pomalidomide] + C=CCn1c(=O)c2cnc(Nc3ccc(N4CCN(C)CC4)cc3)nc2n1-c1cccc(C(C)(C)O)n1 [MK1775] | inactive: 0.171
COc1ccccc1N1CCN(CCN(C(=O)C2CCCCC2)c2ccccn2)CC1 + C=CCn1c(=O)c2cnc(Nc3ccc(N4CCN(C)CC4)cc3)nc2n1-c1cccc(C(C)(C)O)n1 [MK1775] | inactive: 0.531
C=CC1=C(C)c2cc3[nH]c(cc4nc(cc5[nH]c(cc1n2)c(C)c5CCC(=O)O)C(CCC(=O)O)=C4C)c(C)c3C=C [Protoporphyrin IX disodium] + C=CCn1c(=O)c2cnc(Nc3ccc(N4CCN(C)CC4)cc3)nc2n1-c1cccc(C(C)(C)O)n1 [MK1775] | inactive: 2.06
CO[C@H]1C[C@@H]2CC[C@@H](C)[C@@](O)(O2)C(=O)C(=O)N2CCCC[C@H]2C(=O)O[C@H]([C@H](C)C[C@@H]2CC[C@@H](OCCO)[C@H](OC)C2)CC(=O)[C@H](C)/C=C(\C)[C@@H](O)[C@@H](OC)C(=O)[C@H](C)C[C@H](C)/C=C/C=C/C=C/1C [Everolimus (RAD001)] + C=CCn1c(=O)c2cnc(Nc3ccc(N4CCN(C)CC4)cc3)nc2n1-c1cccc(C(C)(C)O)n1 [MK1775] | inactive: -0.493
CC(=O)O[C@@]12CO[C@@H]1C[C@H](O)[C@@]1(C)C(=O)[C@H](O)C3=C(C)[C@@H](OC(=O)[C@H](O)[C@@H](NC(=O)OC(C)(C)C)c4ccccc4)C[C@@](O)([C@@H](OC(=O)c4ccccc4)[C@H]21)C3(C)C [Docetaxel (Taxotere)] + C=CCn1c(=O)c2cnc(Nc3ccc(N4CCN(C)CC4)cc3)nc2n1-c1cccc(C(C)(C)O)n1 [MK1775] | inactive: -0.017
Nc1ncnc2c1ncn2[C@@H]1O[C@H](CO)[C@@H](O)[C@H]1O [Adenosine] + C=CCn1c(=O)c2cnc(Nc3ccc(N4CCN(C)CC4)cc3)nc2n1-c1cccc(C(C)(C)O)n1 [MK1775] | inactive: 0.15
C[n+]1cc2c3c(ccc2c2ccc4cc5c(cc4c21)OCO5)OCO3 [Sanguinarine chloride] + C=CCn1c(=O)c2cnc(Nc3ccc(N4CCN(C)CC4)cc3)nc2n1-c1cccc(C(C)(C)O)n1 [MK1775] | inactive: -1.33
C[C@]12CC[C@@H]3c4ccc(O)cc4CC[C@H]3[C@@H]1CC[C@@H]2O [beta-Estradiol] + C=CCn1c(=O)c2cnc(Nc3ccc(N4CCN(C)CC4)cc3)nc2n1-c1cccc(C(C)(C)O)n1 [MK1775] | inactive: 0.0413
C[C@]12CC[C@@H]3c4ccc(O)cc4CC[C@H]3[C@@H]1CC[C@@H]2O [Estradiol] + C=CCn1c(=O)c2cnc(Nc3ccc(N4CCN(C)CC4)cc3)nc2n1-c1cccc(C(C)(C)O)n1 [MK1775] | inactive: 0.335
CN(C)CCOC(c1ccccc1)c1ccccc1 [Diphenhydramine hydrochloride] + C=CCn1c(=O)c2cnc(Nc3ccc(N4CCN(C)CC4)cc3)nc2n1-c1cccc(C(C)(C)O)n1 [MK1775] | inactive: -0.0607
CC(=O)[C@H]1CC[C@H]2[C@@H]3CCC4=CC(=O)CC[C@]4(C)[C@H]3CC[C@]12C [Progesterone] + C=CCn1c(=O)c2cnc(Nc3ccc(N4CCN(C)CC4)cc3)nc2n1-c1cccc(C(C)(C)O)n1 [MK1775] | inactive: 1.2
OC(CN1CCC(Cc2ccc(F)cc2)CC1)c1ccc(Cl)cc1 (centres undefined) [Eliprodil] + C=CCn1c(=O)c2cnc(Nc3ccc(N4CCN(C)CC4)cc3)nc2n1-c1cccc(C(C)(C)O)n1 [MK1775] | inactive: 0.226
CN(C)CC/C=C1/c2ccccc2Sc2ccc(Cl)cc21 [Chlorprothixene hydrochloride] + C=CCn1c(=O)c2cnc(Nc3ccc(N4CCN(C)CC4)cc3)nc2n1-c1cccc(C(C)(C)O)n1 [MK1775] | inactive: -0.147
CC(=O)Oc1ccccc1C(=O)O [Acetylsalicylic acid] + C=CCn1c(=O)c2cnc(Nc3ccc(N4CCN(C)CC4)cc3)nc2n1-c1cccc(C(C)(C)O)n1 [MK1775] | inactive: -0.0434
CC1=C(/C=C/C(C)=C/C=C/C(C)=C/C=C/C=C(C)/C=C/C=C(C)/C=C/C2=C(C)C(=O)[C@@H](O)CC2(C)C)C(C)(C)C[C@H](O)C1=O [Astaxanthin] + C=CCn1c(=O)c2cnc(Nc3ccc(N4CCN(C)CC4)cc3)nc2n1-c1cccc(C(C)(C)O)n1 [MK1775] | inactive: 0.414
CC1=C(/C=C/C(C)=C/C=C/C(C)=C/C(=O)O)C(C)(C)CCC1 [Retinoic acid] + C=CCn1c(=O)c2cnc(Nc3ccc(N4CCN(C)CC4)cc3)nc2n1-c1cccc(C(C)(C)O)n1 [MK1775] | inactive: 0.257
CC(O)C(O)[C@H]1CNc2nc(N)[nH]c(=O)c2N1 (stereo partly drawn) [(6R)-5,6,7,8-Tetrahydro-L-biopterin hydrochloride] + C=CCn1c(=O)c2cnc(Nc3ccc(N4CCN(C)CC4)cc3)nc2n1-c1cccc(C(C)(C)O)n1 [MK1775] | inactive: -0.0466

Reformatted: entries from further up

| Structure (SMILES) | Z' of S-phase gammaH2AX difference (Z-score) |
| --- | --- |
| OC(CN1CCC(Cc2ccc(F)cc2)CC1)c1ccc(Cl)cc1 (centres undefined) [Eliprodil] + C=CCn1c(=O)c2cnc(Nc3ccc(N4CCN(C)CC4)cc3)nc2n1-c1cccc(C(C)(C)O)n1 [MK1775] | inactive: 0.226 |
| CC(O)C(O)[C@H]1CNc2nc(N)[nH]c(=O)c2N1 (stereo partly drawn) [(6R)-5,6,7,8-Tetrahydro-L-biopterin hydrochloride] + C=CCn1c(=O)c2cnc(Nc3ccc(N4CCN(C)CC4)cc3)nc2n1-c1cccc(C(C)(C)O)n1 [MK1775] | inactive: -0.0466 |

Next part:

Structure (SMILES) | Z' of S-phase gammaH2AX difference (Z-score)
NC(=O)C1=CN(C2OC(COP(=O)(O)OP(=O)(O)OC[C@H]3O[C@@H](n4cnc5c(N)ncnc54)C(OP(=O)(O)O)[C@H]3O)C(O)C2O)C=CC1 (some centres undefined) [NADPH tetrasodium] + C=CCn1c(=O)c2cnc(Nc3ccc(N4CCN(C)CC4)cc3)nc2n1-c1cccc(C(C)(C)O)n1 [MK1775] | inactive: -0.218
NC(=O)CNCCC(c1ccccc1)c1ccccc1 [N-(3,3-Diphenylpropyl)glycinamide] + C=CCn1c(=O)c2cnc(Nc3ccc(N4CCN(C)CC4)cc3)nc2n1-c1cccc(C(C)(C)O)n1 [MK1775] | inactive: 0.255
CC1=C(C(=O)O)N2C(=O)[C@@H](NC(=O)[C@H](N)C3=CCC=CC3)[C@H]2SC1 [Cephradine] + C=CCn1c(=O)c2cnc(Nc3ccc(N4CCN(C)CC4)cc3)nc2n1-c1cccc(C(C)(C)O)n1 [MK1775] | inactive: 0.0935
O=C(O)c1ccc(-c2c[nH]c3ncc(-c4ccccc4)cc23)cc1C1CCCC1 + C=CCn1c(=O)c2cnc(Nc3ccc(N4CCN(C)CC4)cc3)nc2n1-c1cccc(C(C)(C)O)n1 [MK1775] | inactive: -0.926
CN1CCc2cc(Cl)c(O)cc2[C@@H](c2ccccc2)C1 + C=CCn1c(=O)c2cnc(Nc3ccc(N4CCN(C)CC4)cc3)nc2n1-c1cccc(C(C)(C)O)n1 [MK1775] | inactive: -0.192
Nc1ccc(N2C(=O)c3ccccc3C2=O)c(Cl)c1 [N-(4-Amino-2-chlorophenyl)phthalimide] + C=CCn1c(=O)c2cnc(Nc3ccc(N4CCN(C)CC4)cc3)nc2n1-c1cccc(C(C)(C)O)n1 [MK1775] | inactive: 0.0367
O=C(O)C1CCCN(CCC=C(c2ccccc2)c2ccccc2)C1 (centres undefined) + C=CCn1c(=O)c2cnc(Nc3ccc(N4CCN(C)CC4)cc3)nc2n1-c1cccc(C(C)(C)O)n1 [MK1775] | inactive: 0.483
CC(=O)O[C@]1(C(C)=O)CC[C@H]2[C@@H]3C=C(Cl)C4=CC(=O)[C@@H]5C[C@@H]5[C@]4(C)[C@H]3CC[C@@]21C [Cyproterone acetate] + C=CCn1c(=O)c2cnc(Nc3ccc(N4CCN(C)CC4)cc3)nc2n1-c1cccc(C(C)(C)O)n1 [MK1775] | inactive: -0.0935
N[C@@H]1CONC1=O [D-Cycloserine] + C=CCn1c(=O)c2cnc(Nc3ccc(N4CCN(C)CC4)cc3)nc2n1-c1cccc(C(C)(C)O)n1 [MK1775] | inactive: 0.0568
OCC1OC(n2cnc3c(NC4CCCCC4)ncnc32)C(O)C1O (centres undefined) [N6-Cyclohexyladenosine] + C=CCn1c(=O)c2cnc(Nc3ccc(N4CCN(C)CC4)cc3)nc2n1-c1cccc(C(C)(C)O)n1 [MK1775] | inactive: 0.458
N[C@@H](Cc1c[nH]c2ccc(O)cc12)C(=O)O [5-Hydroxy-L-tryptophan] + C=CCn1c(=O)c2cnc(Nc3ccc(N4CCN(C)CC4)cc3)nc2n1-c1cccc(C(C)(C)O)n1 [MK1775] | inactive: -0.872
CC(C)n1nc(-c2ccc3oc(N)nc3c2)c2c(N)ncnc21 + C=CCn1c(=O)c2cnc(Nc3ccc(N4CCN(C)CC4)cc3)nc2n1-c1cccc(C(C)(C)O)n1 [MK1775] | inactive: -0.832
Clc1ccc(Cn2c(CN3CCCC3)nc3ccccc32)cc1 [Clemizole hydrochloride] + C=CCn1c(=O)c2cnc(Nc3ccc(N4CCN(C)CC4)cc3)nc2n1-c1cccc(C(C)(C)O)n1 [MK1775] | inactive: 0.962
O=C(O)/C=C/c1ccc(O)c(O)c1 [Caffeic Acid] + C=CCn1c(=O)c2cnc(Nc3ccc(N4CCN(C)CC4)cc3)nc2n1-c1cccc(C(C)(C)O)n1 [MK1775] | inactive: -0.651
CCCCc1nc2cc(/C=C/C(=O)NO)ccc2n1CCN(CC)CC [SB939 (Pracinostat)] + C=CCn1c(=O)c2cnc(Nc3ccc(N4CCN(C)CC4)cc3)nc2n1-c1cccc(C(C)(C)O)n1 [MK1775] | inactive: -0.0614
CCCn1c(=O)[nH]c(=O)c2[nH]cnc21 [3-n-Propylxanthine] + C=CCn1c(=O)c2cnc(Nc3ccc(N4CCN(C)CC4)cc3)nc2n1-c1cccc(C(C)(C)O)n1 [MK1775] | inactive: -1.43
OC[C@H]1O[C@@H](n2cnc3c(NC4CCCC4)ncnc32)[C@H](O)[C@@H]1O [N6-Cyclopentyladenosine] + C=CCn1c(=O)c2cnc(Nc3ccc(N4CCN(C)CC4)cc3)nc2n1-c1cccc(C(C)(C)O)n1 [MK1775] | inactive: -0.237
